Strings that start with PEPTIDE1 are HELM notation: dots part the residues, brackets hold end groups and non-standard residues. Non-standard residues stand in square brackets, D forms with d. Nle = CCCC[C@H](N)C(=O)O

Consider twelve substances from PMC10946806 (Chemistry (Weinheim an Der Bergstrasse, Germany), 2023).

This series in a line: general procedure: Fmoc solid-phase peptide synthesis; Rink amide ChemMatrix resin. As to conditions: whole synthesis; for final HPLC purity: analytical RP-HPLC.

As for FTU-Ahx-AKS6YAR(Nle)GRS6LKEIAK-NH2, for the setting “hydrocarbon staple”, the “final HPLC purity” value amounted to 95% and the isolated yield is 3%.
The like results for FTU-Ahx-AKR7YAR(Nle)GRR7LKEIAK-NH2 were, in that order, 96% and 4%.
Turning to “PEPTIDE1{[FTU].[Ahx].A.K.[R7].Y.A.R.[Nle].G.R.[S7].L.K.E.I.A.K.[am]}$PEPTIDE1,PEPTIDE1,5:R3-12:R3$$$V2.0”, the isolated yield is reported as 4% and the “final HPLC purity” value amounted to 98%.
The like results for “PEPTIDE1{[FTU].[Ahx].A.K.[S7H].Y.A.R.[Nle].G.R.[S7H].L.K.E.I.A.K.[am]}$PEPTIDE1,PEPTIDE1,5:R3-12:R3$$$V2.0” were, in that order, 2% and 98%.
With FTU-Ahx-AKR8YAR(Nle)GRS8LKEIAK-NH2, for the setting “hydrocarbon staple”, the “final HPLC purity” value is reported as 97% and the isolated yield worked out at 5%.
The like results for Ac-AKS7YAR(Nle)GRS7LKEIAK-NH2 were, in that order, 98% and 3%.
For FTU-Ahx-AKS8YAR(Nle)GRR8LKEIAK-NH2, under “hydrocarbon staple”, the “final HPLC purity” value came out at 97% and the isolated yield came to 3%.
The like results for FTU-Ahx-AKR8YAR(Nle)GRR8LKEIAK-NH2 were, in that order, 96% and 3%.
The like results for FTU-Ahx-AKS5YAR(Nle)GRS5LKEIAK-NH2 were, in that order, 98% and 2%.
As to “PEPTIDE1{[FTU].[Ahx].A.K.A.Y.A.R.[Nle].G.R.A.L.K.E.I.A.K.[am]}$$$$V2.0”, the isolated yield turned out to be 10% and the “final HPLC purity” value was 99%.
For the substance “Ac-AKAYAR[Nle]GRALKEIAK-NH2 (SMILES CCCC[C@H](NC(=O)[C@H](CCCNC(=N)N)NC(=O)[C@H](C)NC(=O)[C@H](Cc1ccc(O)cc1)NC(=O)[C@H](C)NC(=O)[C@H](CCCCN)NC(=O)[C@H](C)NC(C)=O)C(=O)NCC(=O)N[C@@H](CCCNC(=N)N)C(=O)N[C@@H](C)C(=O)N[C@@H](CC(C)C)C(=O)N[C@@H](CCCCN)C(=O)N[C@@H](CCC(=O)O)C(=O)N[C@H](C(=O)N[C@@H](C)C(=O)N[C@@H](CCCCN)C(N)=O)[C@@H](C)CC)”, the isolated yield is 12% and the “final HPLC purity” value came out at 99%.
The like results for “PEPTIDE1{[FTU].[Ahx].A.K.[S7].Y.A.R.[Nle].G.R.[S7].L.K.E.I.A.K.[am]}$PEPTIDE1,PEPTIDE1,5:R3-12:R3$$$V2.0” were, in that order, 6% and 99%.
